Assay results: PubChem BioAssay AID652054 (National Center for Advancing Translational Sciences (NCATS), 2013)
Among all 360,000 compounds or so, about 9,100 (2.5%) were called active. Inconclusive results, whose numbers are uncertain, are shown with a selection of clear calls. Rule as the data show it: active = max response below about -50%; inconclusive = no clear call, values can overlap the other calls; inactive = above that.
% is scaled to controls: 0 for no effect and ±100 for the full control effect.

Amino acid sequences for entries named in this document (tags omitted).
UniProt P35462, whole entry, looked up: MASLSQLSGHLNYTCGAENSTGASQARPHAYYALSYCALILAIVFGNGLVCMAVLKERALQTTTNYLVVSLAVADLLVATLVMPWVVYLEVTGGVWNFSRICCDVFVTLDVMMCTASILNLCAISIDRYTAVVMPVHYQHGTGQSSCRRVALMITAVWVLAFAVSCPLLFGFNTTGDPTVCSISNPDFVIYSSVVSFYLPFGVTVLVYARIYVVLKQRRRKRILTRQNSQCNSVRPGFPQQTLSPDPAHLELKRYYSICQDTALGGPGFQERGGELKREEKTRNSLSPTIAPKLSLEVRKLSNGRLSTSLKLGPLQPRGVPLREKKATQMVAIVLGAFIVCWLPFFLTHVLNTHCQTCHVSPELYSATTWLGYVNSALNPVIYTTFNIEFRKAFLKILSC

The compounds below were run against D(3) dopamine receptor (Homo sapiens) (UniProt P35462) (assay: qHTS of D3 Dopamine Receptor Antagonist: qHTS). Settings: D3R cells, DiscoveRx beta-arrestin luminescence, antagonist mode; active compounds read low.
Outline: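 Cells plated overnight at 1500 cells/well, then exposed to library compounds with dopamine controls for 90 minutes at 37 degrees C. DiscoveRx reagent added for 30–60 minutes at room temperature; luminescence read, quantitative HTS format.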
In the case of CN(C)[C@@H](CO)c1nnc([C@H](Cc2ccc(O)cc2)NC(=O)C2CCNCC2)o1, the max response, negative = inhibition is reported as inactive: 6.98%.
CN(C)c1ccc(C(=S)N2CCCC2)cc1Br was tested, and the max response, negative = inhibition was inconclusive: -40.2%.
O=C(CCCc1nc2ccccc2s1)NC(c1ccccc1)c1ccccc1 was tested, and the max response, negative = inhibition was inconclusive: -37.1%.
In the case of Cc1ccc(CNC(=O)c2ccc3c(=O)n4c(-c5ccc(C)cc5)csc4nc3c2)cc1, the max response, negative = inhibition is reported as inactive: -18.3%.
With CCOc1ccc(/C=N/NC(=O)c2[nH]c3ccc(C)cc3c2C)cc1 the max response, negative = inhibition was inconclusive: -48%.
With CN1C(=O)CC(C(=O)O)SC1=Nc1cc(Cl)c(O)c(Cl)c1 (stereo not given) the max response, negative = inhibition was inconclusive: -44.1%.
In the case of Cc1cccc(N2CCN(C(=O)c3cccc(S(=O)(=O)N4CCCCC4)c3)CC2)c1C, the max response, negative = inhibition is reported as inconclusive: -33.3%.
With COCCN(CC1CCCN(C2Cc3ccccc3C2)C1)C(=O)CCC(N)=O (stereo not given) the max response, negative = inhibition was inconclusive: -36.3%.
O=C(Nc1nonc1NC(=O)C1CCCCC1)C1CCCCC1 was tested, and the max response, negative = inhibition was inconclusive: -33.5%.
O=C(Nc1ccc(-c2nc3ncccc3o2)cc1)c1ccco1 was tested, and the max response, negative = inhibition was inactive: 22.9%.
O=C(/C=C/c1cccs1)NC(=S)NNC(=O)Cc1cccs1 was tested, and the max response, negative = inhibition was active: -80.1%.
With COC(=O)c1[nH]c2cc(OC)ccc2c1NC(=O)CCN1CCN(Cc2ccc3c(c2)OCO3)CC1 the max response, negative = inhibition was active: -80.6%.
In the case of O=S(=O)(Nc1nc2ccccc2nc1NCc1ccco1)c1cccs1, the max response, negative = inhibition is reported as inconclusive: -39.1%.
In the case of C=CC[C@]12CC=CC(=O)[C@@]1(O)O[C@H](c1ccc(OC)c(OC)c1)[C@H]2C, the max response, negative = inhibition is reported as inconclusive: -41.8%.
CCc1nc2c(OCCOc3ccccc3)cccn2c1N(C)C(=O)c1ccc(OC)cc1 was tested, and the max response, negative = inhibition was active: -76.4%.
For COc1cc(C)c(/C=C(\C#N)C(=O)Nc2ccc(C)cc2)cc1C(C)C, the max response, negative = inhibition was inconclusive: -30.9%.
With Cc1ccc2cc(C#N)c(N3CCN(C)CC3)nc2c1 the max response, negative = inhibition was active: -81.8%.
In the case of COc1ccc(NS(=O)(=O)c2cc(C(=O)N3CCCCCC3)ccc2C)cc1, the max response, negative = inhibition is reported as inactive: 5.23%.
With COCCn1c(=S)[nH]c2cc(C(=O)NCc3ccccc3)ccc2c1=O the max response, negative = inhibition was active: -65.9%.
In the case of CC(C)c1ccc(C2=C(O)c3ccccc3C(=O)C2=O)cc1, the max response, negative = inhibition is reported as inconclusive: -40.1%.
In the case of Cc1ccc(C(=O)NCCC(=O)N2CCC3(CC2)NCCc2[nH]cnc23)cc1C, the max response, negative = inhibition is reported as inactive: -0.701%.
With CCCN1CCC(N2CCN(c3cccc(C(F)(F)F)c3)CC2)CC1 the max response, negative = inhibition was inconclusive: -31%.
O=C(NCc1ccccc1)Nc1cccn(Cc2ccc(Cl)cc2)c1=O was tested, and the max response, negative = inhibition was inactive: -13.6%.
For COc1ccc(-c2cc(N)n(S(=O)(=O)c3c(F)c(F)c(F)c(F)c3F)n2)cc1OC, the max response, negative = inhibition was active: -56.3%.
For CN1CCN(C(=O)c2cc3nc(-c4ccc(F)cc4)cc(C(F)(F)F)n3n2)CC1, the max response, negative = inhibition was active: -52.2%.
For COc1cc(/C=C2\SC(=S)N(NC(=O)c3ccc(O)c(OC)c3)C2=O)ccc1O, the max response, negative = inhibition was active: -74.9%.
For CCc1nc2ccc(C(=O)NC3CCN(Cc4ccccc4)CC3)cn2c1N(C)Cc1ccc(N(C)C)cc1, the max response, negative = inhibition was active: -62.9%.
For O=C(O)C1CSC(c2coc3ccccc3c2=O)N1 (stereo not given), the max response, negative = inhibition was inactive: -14%.
In the case of CN(C)c1nc(OCCOC(=O)c2ccccc2)nc(N(C)C)n1, the max response, negative = inhibition is reported as inactive: 34.3%.
For Oc1ccc(Cl)cc1CNCC1CCCCC1, the max response, negative = inhibition was active: -75.6%.
In the case of O=C(Nc1ccc(CN2CCCCC2)cc1)Nc1ccc(Br)cc1Cl, the max response, negative = inhibition is reported as active: -79.4%.
In the case of O=S1(=O)C=C(SCCN2CCCCC2)c2ccccc21, the max response, negative = inhibition is reported as inconclusive: -36.5%.
With CC(C)CC(NC(=O)c1ccco1)C(=O)Nc1ccc2c(c1)OCCO2 (stereo not given) the max response, negative = inhibition was inconclusive: -46.2%.
O=C1Nc2ccc(Cl)cc2C12Nc1ccccc1-c1nnc(SCc3ccccc3F)nc1O2 (stereo not given) was tested, and the max response, negative = inhibition was inactive: -7.86%.
In the case of O=c1[nH]sc2ccccc12, the max response, negative = inhibition is reported as inconclusive: -33.1%.
In the case of CCCCCOC(=O)Nc1ccc(S(=O)(=O)Nc2cccc([N+](=O)[O-])c2)cc1, the max response, negative = inhibition is reported as inconclusive: -49.4%.
In the case of S=c1[nH]nc(-c2ccccn2)n1/N=C/c1ccco1, the max response, negative = inhibition is reported as inconclusive: -32.8%.
With CN1CCN(C(=O)C23CCC(C)(c4nc5ccccc5nc42)C3(C)C)CC1 (stereo not given) the max response, negative = inhibition was active: -50.7%.
In the case of CCCCNC(=S)N(CCN(CC)CC)Cc1cc2cc3c(cc2[nH]c1=O)OCO3, the max response, negative = inhibition is reported as inconclusive: -31.3%.
With Cc1cc(C(F)F)n2nc(C(=O)Nc3ccc(F)cc3F)nc2n1 the max response, negative = inhibition was active: -53.7%.
For CCN(CC)S(=O)(=O)c1ccc(Cl)c(C(=O)NC2CCN(Cc3ccccc3)CC2)c1, the max response, negative = inhibition was active: -65.4%.
With CC(C)OCC(O)CN1CCN(C(c2ccccc2)c2ccccc2)CC1 (stereo not given) the max response, negative = inhibition was active: -50.4%.
With CC(C)(C)CN1CCN(CCCc2ccccc2)C(CCO)C1 (stereo not given) the max response, negative = inhibition was inconclusive: -35.8%.
In the case of O=S(=O)(CC(CN1CCCCC1)N1CCCCC1)c1ccccc1 (stereo not given), the max response, negative = inhibition is reported as inconclusive: -31.1%.
With O=C(NC(=S)Nc1ccccc1[N+](=O)[O-])c1ccco1 the max response, negative = inhibition was inconclusive: -41%.
